# Results reported in PubChem BioAssay AID2718 (Broad Institute, 2010).
# Protein sequences, listed by entry. Tags and fused reporters are not part of them.
# UniProt O15379, whole entry, looked up: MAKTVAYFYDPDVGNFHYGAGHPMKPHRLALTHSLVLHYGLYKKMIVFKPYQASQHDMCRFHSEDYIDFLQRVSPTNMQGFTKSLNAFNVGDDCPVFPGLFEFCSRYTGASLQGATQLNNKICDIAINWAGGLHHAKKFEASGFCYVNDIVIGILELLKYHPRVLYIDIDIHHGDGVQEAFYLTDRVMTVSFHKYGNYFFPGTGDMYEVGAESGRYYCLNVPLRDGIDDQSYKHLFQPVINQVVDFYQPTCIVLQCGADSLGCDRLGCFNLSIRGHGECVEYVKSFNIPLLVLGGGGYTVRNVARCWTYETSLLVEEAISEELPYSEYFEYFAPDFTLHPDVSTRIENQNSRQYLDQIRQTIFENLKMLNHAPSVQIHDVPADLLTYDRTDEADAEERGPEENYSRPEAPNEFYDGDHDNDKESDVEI
# Among all 320,000 compounds or so, about 480 (0.15%) were called active. Inconclusive means that the source gave no clear call. Such entries were picked first, then a sample of the others. Cut-off read from the data, not from the text of the source: active = inhibition above about 26% (passing the limit was not always enough); inconclusive = no clear call, values can overlap the other calls.
# Biological target: Histone deacetylase 3 (Homo sapiens) (UniProt O15379)
# Experiment: HDAC3 deacetylase inhibitors, primary screen, biochemical, fluorescence, cell-free homogeneous (AID 2718)
# Conditions: recombinant HDAC3, fluorogenic peptide/trypsin coupled, at 8.3 µM, active compounds read high
row,Structure (SMILES),inhibition
1,COC(=O)C1CCN(C(=O)CSc2nnc(-c3ccccc3)o2)CC1,inconclusive: 17%
2,O=C(N/N=C/c1cc2c(cc1Cl)OCO2)c1ccccn1,inconclusive: 23.5%
3,CC(C)c1ccc(NC(=O)C2CCC(CNC(=O)[C@@H]3Cc4ccccc4CN3)CC2)cc1 (some centres undefined),inactive: -2.93%
4,CCn1c(SCC(=O)NCc2ccco2)nc2cccnc21,inconclusive: 20.7%
5,CCCc1cc(=O)oc2c3c(c4c(c12)OC(C)(C)C=C4)OC(C)C(C)C3O (centres undefined),inconclusive: 13.9%
6,CCOC(=O)Cc1nn[nH]n1,inactive: 1.01%
7,CC1(C)CC(C(N)=S)CCO1 (centres undefined),inactive: 4.46%
8,C=CCN1C(=O)c2ccc(C(=O)NCCc3ccc(OC)c(OC)c3)cc2C1=O,inactive: -2.15%
9,Cc1c(-c2ccccc2Cl)nc2ccccc2c1C(=O)O,inconclusive: 13.3%
10,CC(=O)CSc1cc(-c2ccccc2)nc2ncnn12,inconclusive: 14.1%
11,COc1ccc(CC(=O)Nc2nnc(C(C)C)s2)cc1OC,inconclusive: 24.8%
12,O=C(CSc1ncn(-c2ccccc2)n1)Nc1ccc2c(c1)OCO2,inactive: 3.44%
13,N#Cc1ccc(N2CCCC2C(=O)O)c([N+](=O)[O-])c1 (centres undefined),inconclusive: 14.8%
14,CCCn1c(=O)c(C(=O)NNC(=O)c2ccccc2Cl)c(O)c2ccccc21,inconclusive: 20.9%
15,O=S(=O)(NCc1ccc(F)cc1)c1ccc(-n2cccn2)cc1,inactive: 2.47%
16,CCCN1C(=O)c2ccccc2NC1c1ccc(OC)cc1O (centres undefined),inactive: -26.2%
17,COCCCNC(=O)C1CCCN(S(=O)(=O)c2cccc3nsnc23)C1 (centres undefined),inconclusive: 14%
18,CCc1ccccc1OCC(=O)Nc1ccc(S(N)(=O)=O)cc1,inactive: 3.38%
19,NC(=S)N/N=C\c1ccc(-c2cccc(Cl)c2Cl)o1,inactive: 13.7%
20,O=[N+]([O-])c1nn(-c2ccc3c(c2)OCCO3)n(O)c1=NCc1ccc(F)cc1Cl,inactive: 9.13%
21,CCNC(=O)CN(C1CCCCC1)S(C)(=O)=O,inconclusive: 20.9%
22,Cc1noc(C)c1COc1ccccc1C(=O)N1CCN(S(=O)(=O)c2cccc([N+](=O)[O-])c2)CC1,inconclusive: 27.4%
23,CCO[C@@H]1OC(C(=O)O)=C[C@H](c2ccc(Br)cc2)[C@H]1CCCO,active: 40.5%

row,Structure (SMILES),inhibition
1,C=CC[C@@H](CC(=O)N(CCO)Cc1ccccc1)C(=O)N[C@H](COC(=O)[C@@H](CC=C)CC(=O)OC(C)(C)C)Cc1c[nH]c2ccccc12,active: 50.2%
2,O=C1NCCCC2c3c(cc(Br)c(O)c3Br)OC12N1CCOCC1 (centres undefined),inactive: 6.69%
3,CO/N=C(\Cn1ncc(N2CCOCC2)c(Br)c1=O)c1ccc(Cl)cc1,inconclusive: 15%
4,O=C(COc1ccccc1/C=C1\SC(=O)NC1=O)Nc1ccc(F)cc1,inactive: 0.876%
5,COc1ccc(S(=O)(=O)n2nc(OC(=O)c3cccs3)cc2NC(=O)c2cccs2)cc1,active: 46.3%
6,C[C@H](NC(=O)c1nc[nH]c1C(=O)N[C@@H](Cc1ccccc1)C(=O)OC(C)(C)C)C(=O)OC(C)(C)C,inconclusive: 36.3%
7,COCCn1c(-c2cccs2)csc1=Nc1cccnc1,inconclusive: 26%
8,O=C(NO)c1ccc(OC(F)F)cc1,active: 72.5%
9,CS(=O)(=O)N(CC(=O)NCCSCc1ccccc1)c1ccccc1,inconclusive: 27.2%
10,COc1ccc(S(=O)(=O)N/N=C\c2ccc3c(c2)OCO3)cc1,inconclusive: 19.1%
11,O=C(CC1SC(=O)N(c2ccccc2)C1=O)Nc1ccc(Br)cc1 (centres undefined),active: 50.3%
12,Cc1[nH]nc2c1C1(CCN(Cc3ccccc3)CC1)C(C#N)=C(N)O2,inconclusive: 22.2%
13,Cc1csc(NC(=O)c2nn(C)c(C)c2[N+](=O)[O-])n1,inconclusive: 20.4%
14,COc1ccc(N2CCN(C(c3ccco3)c3sc4nc(C)nn4c3O)CC2)cc1 (centres undefined),inconclusive: 20.7%
15,O=c1[nH]c2ccccc2cc1CN(Cc1cccnc1)S(=O)(=O)c1ccc(Cl)cc1,inactive: 2.08%
16,CCOC(=O)Nc1nnc(-c2ccc(OC)cc2)s1,inactive: -12.5%
17,COC(=O)Cc1cc(=O)[nH]c(/N=C(\N)Nc2ccc(C)cc2C)n1,inconclusive: 9.2%
18,CCCn1c(NCc2ccco2)nc2ccccc21,inconclusive: 17.1%
19,Cc1nn(Cc2ccc(Cl)cc2)c(C)c1NC(=O)c1c(-c2ccccc2)noc1C,inactive: 6.2%
20,Cc1cc(C)c(S(=O)(=O)NCc2ccncc2)c(C)c1,inactive: 10.3%
21,S=C(NCCCN1CCOCC1)N1CCN(c2nc(-c3ccccc3)cs2)CC1,inactive: 4.62%
22,CC(C)(C)c1cc(NC(=O)COC(=O)C2CC2)n(-c2ccccc2)n1,inconclusive: 21.7%
23,Clc1cccc(Cl)c1C[n+]1cccc2ccccc21,inconclusive: 15.9%

row,Structure (SMILES),inhibition
1,N#CC1=C(N)Oc2cc(N)ccc2C1c1ccccc1F (centres undefined),inactive: 2.25%
2,Cn1c(CO)cnc1SCC(=O)c1ccc(Br)cc1,inconclusive: 9.2%
3,COc1cccc(CNC(=O)C2CCCN(S(C)(=O)=O)C2)c1 (centres undefined),inconclusive: 13.6%
4,CC(C)(C)OC(=O)CNC(=O)c1[nH]cnc1C(=O)NC(c1ccccc1)c1ccccc1,inconclusive: 24.9%
5,Cc1csc(NC(=O)CSc2sc3c(O)cc(=O)[nH]c3c2C#N)n1,inactive: 5.64%
6,Nc1nonc1-n1nnc(C(=O)N/N=C/c2cccs2)c1CSc1ccccc1,inconclusive: 21%
7,COc1cc(NC(=O)n2ncc3cc(Cl)ccc32)cc(OC)c1,inactive: 5.93%
8,Cc1nc(SC(C)C(=O)c2c(N)n(C)c(=O)n(C)c2=O)c2c(C)c(C)sc2n1 (centres undefined),inactive: 8.79%
9,CC(=O)N1CCN(C(=O)COc2ccccc2C(=O)Nc2ccccc2)CC1,inconclusive: 8.71%
10,Cc1cc(-c2ccc(Cl)cc2Cl)c(C#N)c(=O)[nH]1,inactive: -2.97%
11,O=C(COC(=O)CCOc1ccccc1)Nc1ccc(Cl)cn1,inconclusive: 24.1%
12,CCOC(=O)c1c(C)[nH]c(N=Nc2cccc(C)c2)c1C,inconclusive: 25.8%
13,CCn1c(C)c(C(C)=O)c(N2CCN(c3ccccn3)CC2)nc1=S,inconclusive: 25.5%
14,O=C(Nc1ccc(N2CCN(C(=O)c3ccco3)CC2)c(Cl)c1)c1cccs1,inactive: -0.989%
15,CN(CC(=O)Nc1cccc(F)c1)C(=O)c1ccc(N2CCOCC2)c([N+](=O)[O-])c1,inconclusive: 17.1%
16,O=C(CCN1C(=O)C2CCCCC2C1=O)Nc1ccc(OC(F)F)cc1 (centres undefined),inconclusive: 12.9%
17,CCCC(C)NC(=O)c1sc2nc3n(c(=O)c2c1C)CCC3 (centres undefined),inconclusive: 22.8%
18,COc1ccc(CCn2c(-c3ccncc3)n[nH]c2=S)cc1OC,inconclusive: 33.5%
19,O=C(CSc1ncn[nH]1)CSc1ncn[nH]1,active: 37%
20,O=C(C1=C[C@H](c2ccc(C(F)(F)F)cc2)C[C@H](OCCCCO)O1)N1CCOCC1,inconclusive: 12%
21,CCCC(C)NC(=O)C1CC(=O)N(CCc2ccc(F)cc2)C1 (centres undefined),inconclusive: 22.7%
22,O=[N+]([O-])c1ccc(O)c(-c2nc(-c3ccccc3)c(-c3cccs3)[nH]2)c1,inactive: -3.57%
23,O=C(Cn1ncc2c1-c1ccccc1OC2)Nc1cccc(Cl)c1,inactive: 6.11%

# Reprinted from the listing for reference:
row,Structure (SMILES),inhibition
3,COc1cccc(CNC(=O)C2CCCN(S(C)(=O)=O)C2)c1 (centres undefined),inconclusive: 13.6%
4,CC(C)(C)OC(=O)CNC(=O)c1[nH]cnc1C(=O)NC(c1ccccc1)c1ccccc1,inconclusive: 24.9%
5,Cc1csc(NC(=O)CSc2sc3c(O)cc(=O)[nH]c3c2C#N)n1,inactive: 5.64%
6,Nc1nonc1-n1nnc(C(=O)N/N=C/c2cccs2)c1CSc1ccccc1,inconclusive: 21%
7,COc1cc(NC(=O)n2ncc3cc(Cl)ccc32)cc(OC)c1,inactive: 5.93%
8,Cc1nc(SC(C)C(=O)c2c(N)n(C)c(=O)n(C)c2=O)c2c(C)c(C)sc2n1 (centres undefined),inactive: 8.79%
9,CC(=O)N1CCN(C(=O)COc2ccccc2C(=O)Nc2ccccc2)CC1,inconclusive: 8.71%
10,Cc1cc(-c2ccc(Cl)cc2Cl)c(C#N)c(=O)[nH]1,inactive: -2.97%
11,O=C(COC(=O)CCOc1ccccc1)Nc1ccc(Cl)cn1,inconclusive: 24.1%
12,CCOC(=O)c1c(C)[nH]c(N=Nc2cccc(C)c2)c1C,inconclusive: 25.8%
13,CCn1c(C)c(C(C)=O)c(N2CCN(c3ccccn3)CC2)nc1=S,inconclusive: 25.5%
14,O=C(Nc1ccc(N2CCN(C(=O)c3ccco3)CC2)c(Cl)c1)c1cccs1,inactive: -0.989%
15,CN(CC(=O)Nc1cccc(F)c1)C(=O)c1ccc(N2CCOCC2)c([N+](=O)[O-])c1,inconclusive: 17.1%
16,O=C(CCN1C(=O)C2CCCCC2C1=O)Nc1ccc(OC(F)F)cc1 (centres undefined),inconclusive: 12.9%
17,CCCC(C)NC(=O)c1sc2nc3n(c(=O)c2c1C)CCC3 (centres undefined),inconclusive: 22.8%
18,COc1ccc(CCn2c(-c3ccncc3)n[nH]c2=S)cc1OC,inconclusive: 33.5%
19,O=C(CSc1ncn[nH]1)CSc1ncn[nH]1,active: 37%
20,O=C(C1=C[C@H](c2ccc(C(F)(F)F)cc2)C[C@H](OCCCCO)O1)N1CCOCC1,inconclusive: 12%
21,CCCC(C)NC(=O)C1CC(=O)N(CCc2ccc(F)cc2)C1 (centres undefined),inconclusive: 22.7%
22,O=[N+]([O-])c1ccc(O)c(-c2nc(-c3ccccc3)c(-c3cccs3)[nH]2)c1,inactive: -3.57%

# Going on with the list:

row,Structure (SMILES),inhibition
1,CCC1(COC(NC(=O)c2cccnc2)(C(F)(F)F)C(F)(F)F)COC1,inconclusive: 18.5%
2,Cc1cc2c(c(=O)n1Cc1ccc3c(c1)OCO3)C(c1cccnc1)C(C#N)=C(N)O2 (centres undefined),inactive: -2.71%
3,CCC[C@@H]1C[C@@]1(CCC)[C@@H](NP(=O)(c1ccccc1)c1ccccc1)c1ccc(C(=O)OC)cc1,inconclusive: 25.7%
4,CCn1c(CSc2nc3ccccc3s2)nnc1SCC(=O)c1ccc(O)cc1O,inactive: 2.24%
5,CC(C(=O)Nc1ccccc1)N1C(=O)c2ccccc2C1=O (centres undefined),inconclusive: 13.6%
6,CCOC(=O)c1c(-c2ccccc2)nnn1-c1nc(OCC)nc(N2CCCCC2)n1,inconclusive: 17.2%
7,Cc1ccccc1NC(=O)CCCn1nc(C)c2c(C)n(-c3ccccc3)nc2c1=O,inconclusive: 16.8%
8,CCNc1nc(N)nc(-c2cc(Cl)ccc2O)n1,inactive: 2.92%
9,COC(=O)C1=CN(Cc2cccs2)C=C(C(=O)OC)C1c1cccc(O)c1,inactive: -51.4%
10,COc1ccc(NS(=O)(=O)c2ccc(C)c(C(=O)N(C)CCc3ccc(OC)c(OC)c3)c2)cc1,inconclusive: 17.9%
11,C=CCNc1nc2ccccc2c(=O)[nH]1,inactive: -0.654%
12,C=CC[C@H](CC(=O)N(CCO)Cc1ccccc1)C(=O)N[C@H](COC(=O)[C@@H](CC=C)CC(=O)OC(C)(C)C)Cc1c[nH]c2ccccc12,inconclusive: 14.2%
13,COc1ccc(C2=Nn3c([n+](C)c4ccccc43)SC2)cc1,active: 31.2%
14,O=C(O)C1(P(=O)(c2ccc(Cl)cc2)c2ccc(Cl)cc2)CC1,inconclusive: 15.7%
15,Cc1ccc(-c2cc(C(F)F)n3ncc(C(=O)N4CCN(c5cccc(C)c5C)CC4)c3n2)cc1,inconclusive: 24.1%
16,Cc1cccc(NC(=O)NCC2CC2)c1,inactive: 1.83%
17,CC(=O)Nc1cccc(-c2nc3ccc(NC(C)=O)cc3s2)c1,inactive: -128%
18,CC1(C)Cc2c(c(-c3ccccc3)nc(N3CCOCC3)c2C(N)=O)CO1,inconclusive: 33.8%
19,CC(Oc1ccc2ccccc2c1)C(=O)NNC(=O)Nc1ccccc1F (centres undefined),inactive: 0.967%
20,CN(Cc1ccccc1)c1ncnc2c1cnn2-c1ccccc1,inconclusive: 15%
